Some of the results follow. Shown are side measurements of this screen, not its main read-out; they come without a call. Most of these compounds were active or inconclusive in the main read-out, so they are no random draw. The note in brackets gives the kind of curve behind each potency; many fits are weak.
Assay: qHTS Assay for Lipid Storage Modulators in Drosophila S3 Cells;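 as to cell number change: cells counted by Cell Tracker Red CMTPX staining in the red channel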
Details: BODIPY lipid droplet fluorescence, 18-24 h; for cell number change: measured here: cell count max response, cells fed with added oleic acid
Method in brief: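 Drosophila S3 cells loaded with oleic acid (400 uM, as added) and compounds at several concentrations; lipid droplets imaged by 488-nm laser-scanning cytometry, 500–530 nm intensity and object ratio to cell channel. Percent activity normalized to 20 uM Triacsin C.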

[1] = measured here: lipid fluorescence (Fed channel) AC50, cells fed with added oleic acid
[2] = measured here: cell number channel AC50, cells fed with added oleic acid

O=C(COc1ccccc1)OCc1cc2ccccc2[nH]c1=O
cell number change: -1.48% | AC50 [1]: 0.116 µM [falling, full curve]

CC(N=C1NS(=O)(=O)c2ccccc21)C(=O)OCC(=O)N(C)C1CCS(=O)(=O)C1 (stereo unspecified)
cell number change: 40.9% | AC50 [2]: 32.6 µM [rising, single point] | AC50 [1]: 14.6 µM [falling, partial curve]

CCOc1ccc(NC(=O)CN(C)C(=O)CC2CCCCC2)cc1OCC
cell number change: -5.18% | AC50 [1]: 0.00461 µM [rising, full curve, poor fit]

COc1ccccc1OCC(=O)NNc1c2ccccc2nc2ccccc12
cell number change: -72.9% | AC50 [2]: 3.26 µM [falling, partial curve] | AC50 [1]: 2.06 µM [falling, full curve]

O=C(O)c1ccc2c(=O)n3c(nc2c1)/C(=C/c1ccccc1Br)CC3
cell number change: -20% | AC50 [1]: 6.51 µM [rising, single point]

Cc1cccc(NC(=O)c2ccc(C3SCC(=O)N3CCc3ccccc3)cc2)c1 (stereo unspecified)
cell number change: 2.56% | AC50 [1]: 20.6 µM [falling, single point]

CCNc1nc(NCC)n2c(SC(C(=O)Nc3cc(C)ccc3C)c3ccccc3)nnc2n1 (stereo unspecified)
AC50 [1]: 1.84 µM [rising, full curve]

Cc1onc(-c2ccccc2Cl)c1C(=O)Nc1nnc(Cc2ccc(Cl)cc2)s1
cell number change: 2.67% | AC50 [2]: 0.92 µM [falling, full curve, poor fit] | AC50 [1]: 0.731 µM [falling, full curve, poor fit]

Cc1ccc(S(=O)(=O)N[C@H](C(=O)OCC(=O)N2N=C(c3ccc(Cl)cc3)CC2c2ccco2)C(C)C)cc1 (stereo partly specified)
cell number change: -20.3% | AC50 [1]: 23.1 µM [falling, single point]

CCCCNC(=S)Nc1ccccc1Cc1ccccc1
cell number change: 16.2% | AC50 [1]: 0.103 µM [rising, full curve, poor fit]

COc1ccc(NC(C)C(=O)Nc2ccc(C(C)(C)C)cc2)cc1Cl (stereo unspecified)
cell number change: -6.04% | AC50 [1]: 0.13 µM [falling, full curve, poor fit]

Cc1cc(NC(=O)CSc2n[nH]c(-c3cccs3)n2)no1
cell number change: 97.2% | AC50 [2]: 13 µM [rising, partial curve] | AC50 [1]: 3.26 µM [rising, full curve]

O=C(CN(c1ccc(Cl)c(C(F)(F)F)c1)S(=O)(=O)c1ccccc1)N1CCOCC1
cell number change: -16.2%

Cc1nc2c(nnn2Cc2ccccc2Cl)c(=O)[nH]1
cell number change: 20.4% | AC50 [2]: 1.16 µM [rising, full curve, poor fit]

COc1cc(Br)cc(C2C3=C(CCCC3=O)N(c3ccc(F)cc3)C3=C2C(=O)CCC3)c1O
cell number change: -22.2% | AC50 [1]: 25.9 µM [falling, single point]

C#CCOCCOCCOCCNc1nc(N2CCN(C(=O)CCCCCCCCCCNC(=O)[C@@H](CCSC)n3cc(CCO)nn3)CC2)nc(N2CCN(C(=O)CCCCCCCCCCNC(=O)[C@H](CO)n3cc(CCCCCN)nn3)CC2)n1
cell number change: -64.4% | AC50 [2]: 18.4 µM [falling, partial curve]

COc1ccc(-c2[nH]ncc2CN2CCCN(C(=O)c3ccco3)CC2)cc1F
cell number change: 26.1% | AC50 [1]: 29.1 µM [rising, single point]

Cc1ccc(-c2cc(C(=O)Nc3cccc(S(=O)(=O)N(C)C)c3)c3ccccc3n2)o1
cell number change: 53.8% | AC50 [2]: 13 µM [rising, partial curve] | AC50 [1]: 6.51 µM [falling, single point]

CCc1nnc(NC(=O)C2CCCN(c3nc4ccccc4s3)C2)s1 (stereo unspecified)
cell number change: -32.4% | AC50 [2]: 10.3 µM [falling, partial curve] | AC50 [1]: 29.1 µM [falling, single point]

CC(=O)Nc1ccc(NC(=O)C(C)c2cccc(C(=O)c3ccccc3)c2)cc1 (stereo unspecified)
cell number change: 24.6% | AC50 [1]: 8.2 µM [rising, partial curve]

Cc1ccccc1NC(=O)COc1coc(CN2CCCc3ccccc32)cc1=O
cell number change: -1.68%

Cc1[nH]n(-c2cccc([N+](=O)[O-])c2)c(=O)c1-c1ccccc1
cell number change: -0.57%

Cc1ccc2c(c1)C(c1ccccc1)N(C(=O)c1c(F)cccc1Cl)CC(=O)N2 (stereo unspecified)
cell number change: -18.5% | AC50 [1]: 0.0082 µM [falling, full curve, poor fit]

CCSc1nnc(-c2cc(Br)ccc2N=Cc2c(C)[nH]n(-c3ccccc3)c2=O)c(=O)[nH]1
cell number change: -29.4% | AC50 [1]: 14.6 µM [falling, partial curve, poor fit]

COc1cc(OC)cc(C(=O)Nc2ncc3c(n2)CC(C)CC3=O)c1 (stereo unspecified)
cell number change: -1.34% | AC50 [1]: 5.8 µM [rising, full curve]

C#CCOCCOCCOCCNc1nc(N2CCN(C(=O)CCCCCCCCCCNC(=O)[C@@H](CCC(=O)O)n3cc(CCCCCN)nn3)CC2)nc(N2CCN(C(=O)CCCCCCCCCCNC(=O)[C@H](CCCCN)n3cc(C[C@@H](C)CC)nn3)CC2)n1
cell number change: -32.3% | AC50 [2]: 32.6 µM [falling, single point]

O=c1cc(CN2CCc3ccccc32)nc2sccn12
cell number change: 63.5% | AC50 [2]: 29.1 µM [rising, single point] | AC50 [1]: 0.58 µM [rising, single point]

COc1cc(C(=O)OC(C)C(=O)NC(=O)NC2CCCCC2)ccc1OC(F)F (stereo unspecified)
cell number change: -8.95% | AC50 [1]: 0.0058 µM [falling, full curve, poor fit]

CCOC(=O)c1cc(C)sc1/N=C/C1C(=O)CC(C)(C)CC1=O
cell number change: 2.57%

C=CCOC(=O)C1=C[C@@H](c2coc3ccccc3c2=O)C[C@@H](OCc2ccc(CO)cc2)O1
cell number change: 1.03% | AC50 [1]: 0.0731 µM [rising, full curve, poor fit]

O=c1[nH]c(CSc2ncccn2)nc2c1cnn2-c1ccccc1
cell number change: -44.8% | AC50 [2]: 29.1 µM [falling, single point] | AC50 [1]: 0.82 µM [rising, full curve, poor fit]

Cc1ccc(/C=C2\SC(=S)N(CCC(=O)NNC(=O)c3ccccc3O)C2=O)cc1
cell number change: 12.5% | AC50 [1]: 0.461 µM [rising, partial curve]

CC(C)c1ccc(S(=O)(=O)N2CCN(C(C)C(=O)Nc3ccccc3-c3ccccc3)CC2)cc1 (stereo unspecified)
cell number change: 117% | AC50 [2]: 20.6 µM [rising, single point] | AC50 [1]: 23.1 µM [rising, single point]

Cc1ccc([N+](=O)[O-])cc1S(=O)(=O)Nc1ccc(-c2ccc(N3CCCC3)nn2)cc1
cell number change: 50.7% | AC50 [2]: 23.1 µM [rising, single point]

NC(=O)C1CCN(C(=O)CCNS(=O)(=O)c2cc(Br)cnc2N)CC1
cell number change: 4.2%

CNC(=S)N/N=C/c1ccc(-c2cccc(C(=O)O)c2)o1
AC50 [2]: 4.61 µM [rising, partial curve, poor fit] | AC50 [1]: 29.1 µM [rising, single point]

COC(=O)c1c(C)[nH]c(C(=O)CSc2nnnn2-c2ccccc2)c1C
cell number change: 39.7% | AC50 [2]: 1.3 µM [rising, full curve] | AC50 [1]: 1.84 µM [rising, partial curve]

O=C(c1ccco1)N1CCN(C(=O)C2CCN(S(=O)(=O)c3cnc[nH]3)CC2)CC1
cell number change: -8.11% | AC50 [1]: 25.9 µM [falling, partial curve]

COn1c(=O)c(-c2ccc(Cl)cc2)[n+]([O-])c2ccccc21
cell number change: -11.9% | AC50 [1]: 18.4 µM [falling, single point]

O=Cc1cccc(Oc2ncccn2)c1
cell number change: -23.5% | AC50 [1]: 32.6 µM [falling, single point]

COc1ccc(NC(=O)CCC(=O)c2cc(C)sc2C)cc1
cell number change: -0.294% | AC50 [1]: 1.84 µM [falling, partial curve]

COC(=O)c1cc(S(=O)(=O)n2nc(C)c(Br)c2C)c(Cl)cc1Cl
cell number change: -4.74% | AC50 [1]: 29.1 µM [rising, single point]

COc1cccc(NC(=O)C23CCC(C)(C(=O)O2)C3(C)C)c1 (stereo unspecified)
AC50 [2]: 4.61 µM [falling, single point] | AC50 [1]: 2.06 µM [falling, partial curve]

O=C(N/N=C/c1ccc(O)cc1)c1nc(-c2ccccc2)n(-c2ccccc2)n1
cell number change: -22.5% | AC50 [2]: 0.731 µM [falling, full curve, poor fit] | AC50 [1]: 0.82 µM [falling, full curve, poor fit]

O=C(CNS(=O)(=O)c1cccc(Br)c1)NCC1CCCCC1
cell number change: -19.2% | AC50 [1]: 5.17 µM [rising, single point]

CC1C(=O)N2CCCc3cc(NC(=O)COc4ccccc4)cc1c32 (stereo unspecified)
cell number change: -10.4% | AC50 [2]: 4.61 µM [rising, single point]

COc1ccc(S(=O)(=O)N(CC(=O)NCc2ccccn2)Cc2ccccc2)cc1
cell number change: -1.68% | AC50 [1]: 2.91 µM [rising, single point]

Cc1ccc(C)c(N(CC(=O)NCCC2=CCCCC2)S(C)(=O)=O)c1
cell number change: 12.1% | AC50 [1]: 0.651 µM [falling, single point]

CCOC(=O)C1(CCOc2ccccc2)CCN(Cc2cc(OC)cc(OC)c2)CC1
cell number change: -13.2% | AC50 [1]: 0.58 µM [falling, single point]

Brc1ccc(-c2cnnc(N3CCCC3)n2)cc1
cell number change: 3.94% | AC50 [1]: 13 µM [rising, single point]

COc1ccc(CCN(C)C(=O)Cc2ccc(-c3ccccc3)cc2)cc1OC
cell number change: 11.3%

Cc1cc(C)c(C(=O)N2CCCC(CNS(=O)(=O)c3cccs3)C2)o1 (stereo unspecified)
cell number change: -3.47% | AC50 [1]: 29.1 µM [rising, single point]

COc1cccc(CNC(=O)Cn2nc(-c3ccc(Cl)cc3)ccc2=O)c1
cell number change: -0.938% | AC50 [2]: 0.146 µM [falling, full curve, poor fit] | AC50 [1]: 0.146 µM [falling, full curve]

Reference: PubChem BioAssay AID2685 (National Center for Advancing Translational Sciences (NCATS), 2010)
